# Primary screen of a compound library

The values are deposited in ChEMBL (CHEMBL3988442, “University of Dundee, Small-Polar-MMV Screening Library” (2021)).

The filed quantity is “Percent Effect” (%).
The controls that fix the scale are not given in the record; negative values are as filed.
The compounds are a random part of those screened.
Two or more numbers in one place are separate tests of the same structure; such repeats can differ widely.

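Viability assay of Plasmodium falciparum sporozoites; the read-out is not stated. The concentration is filed as 10 mM, unlikely as a test dose, so the dose is not known. The record gives no direction; compounds that gave an IC50 in retests scored well above the rest, so higher reads as lower viability. Strong results were mostly tested again. Size under these conditions: about 34,000 compounds, about 280 of them at 50% or above in at least one test.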

Cc1ccc(CNC(=O)NC(C)CCS(C)(=O)=O)cc1F (stereo not given) read -12.26%. O=C1NC[C@]2(CC[C@@H](C(=O)N3CCCC(O)C3)CC2)Oc2ccccc21 (stereo not given in full) read -7.822%. COCC1CN(Cc2ccncc2)Cc2nnn(CC3CC3)c21.O=C(O)C(F)(F)F.O=C(O)C(F)(F)F (stereo not given) read -6.543%. Result for O=C(COc1cccc2c1CCC2=O)NCCOc1ccccc1 was 6.201%. For Cc1cnn(C2CN(CC(=O)NCCc3cccs3)C2)c1 the result was -14.27%.

Result for CS(=O)(=O)c1cn[nH]c1C1CCCCN1C(=O)c1cnccn1 (stereo not given) was -22.57%. CN1CC=C(c2noc(CCC(=O)N3CCc4ccccc43)n2)CC1 gave 2.634%. With CCn1cc(C(=O)n2nc(C)cc2C)c(S(=O)(=O)N2CCCCC2)n1 the screen gave 0.8705%. With Cn1cc(CN2CC[C@H](O)[C@@H]2Cc2ccncc2)cn1 the screen gave 14.17%. Result for CC(C)c1noc(CCCC(=O)N2CCN(Cc3ccsc3)CC2)n1 was 15.27%.

With O=C(Nc1ccccc1F)c1nn(C2CCS(=O)(=O)C2)c2c1CCCC2 (stereo not given) the screen gave 38.15% and 35.56%. For O=C(c1cccc2cccnc12)N1CCCC(n2ccnc2)C1 (stereo not given) the result was -0.7183%. O=C(NC[C@H]1CC[C@H](c2nnc(-c3cccnc3)o2)CC1)C1CC1 gave 5.807%. For O=c1ccc2c([nH]1)CCC(NS(=O)(=O)C1CC1)C2 (stereo not given) the result was 20.29%. Cc1nc(N2CCCC2)nc2c1CN(C(=O)N(C)C)CC2 read -2.347%.

Result for O=C(O)c1ccccc1-c1ccc(CNC(=O)C2CCOCC2)cc1 was 0.2427%. O=C(C1CCC1)N1CCn2c(COc3ncccn3)nnc2C1 read -5.928%. Result for CNC(=O)C1(CCCc2cccnc2)CCCCN1 (stereo not given) was -17.65%. With CN(CC(=O)NCCC#N)C(c1ccccc1)c1ccc(F)cc1 (stereo not given) the screen gave 5.379%. COc1c(C)cnc(CSc2nnc(N)s2)c1C read -6.618%.

For O=C(O)C(F)(F)F.O=c1cccnn1CC1CN(CC2CCCC2)Cc2nccn2C1 (stereo not given) the result was 2.192%. With Cc1nc(-c2ccccc2C)n(CC(=O)NC2CCCC2)n1 the screen gave 0.5205%. Result for CCOc1ccccc1C1CCCN1.Cl (stereo not given) was -5.975%. For CCn1c(CN2CCC(O)(C(=O)OC)CC2)nc2c(F)cccc21 the result was 5.276%. CC(C(=O)Nc1ccnn1C(C)C)N1CCN(Cc2ccon2)CC1 (stereo not given) gave -0.1183%.

Result for CC(C)Nc1nc2c(s1)C(=O)CN(CC1CC1)C2 was -0.7621%. Result for CCOC(=O)N1CCN(C(=O)c2sc(-c3ccc(F)cc3)nc2C)CC1 was 4.262%. For Cc1nc(CN2CCCC(NCCc3ccccc3Cl)C2)no1 (stereo not given) the result was -8.306%. Result for [H][C@]12CN(Cc3c[nH]nc3-c3ccccc3)C[C@]1([H])N(CCOC)C(=O)CO2 was -12.2%. Cc1ccc(OCC(=O)NCc2ccccc2F)nc1 read 12.63%.

CSC(C)C(=O)N1CCCN(Cc2cnn(C(C)C)c2)CC1 (stereo not given) read -5.76%. Result for Cc1noc(CN2CC(=O)N(C)c3ccccc3C2=O)n1 was -1.205%. For CC(C)C(C)(C#N)NC(=O)Cn1nnc(-c2cc3ccccc3o2)n1 (stereo not given) the result was 14.82%. CN(C)[C@H]1CN(C(=O)c2ccc3sc4c(c3c2)CCNC4=O)C[C@@H]1O gave 3.772%. With Cc1csc(CCCNC(C)CC(=O)Nc2cccc(C)c2C)n1 (stereo not given) the screen gave 9.518%.

O=C(c1ccco1)N1CCOCC2(C1)CN(c1ccccn1)C(=O)CO2 (stereo not given) read 7.42% and -2.043% and 8.153%. COCC(=O)N1CC(c2ccnc(Nc3ccc(C)cn3)n2)C1 read 0.1159% and 3.964% and -12.15%. With CCCc1nc(C[S+]([O-])Cc2cn3cccc(C)c3n2)no1 (stereo not given) the screen gave -7.692%. CC(=O)Nc1nc(C2CCN(C(=O)c3cccnc3)CC2)cs1 read -24.57%. [H][C@]12CN(C(C)=O)C[C@@]1([H])OCCN(S(=O)(=O)C1CC1)C2 gave 1.378%.

For O=C(O)C(F)(F)F.[H][C@@]12C[C@@H](c3nc(C)no3)CN(Cc3cc(C)c(C)o3)[C@]1([H])CCO2 the result was 1.852%. CC(=O)N1CCN(C(=O)c2cnn(-c3ccccc3Cl)c2)CC1 gave 2.24%. CC(=O)c1ccc(S(=O)(=O)NCc2cccnc2N(C)C)cc1 gave 4.174%. For CCCc1nc(C)cc(N2CCC3(CCC(=O)N(CC4CC4)C3)CC2)n1 the result was -7.151%. O=C1CCCN1CC1CCCCN1C(=O)Nc1cccnc1 (stereo not given) read 7.898%.

With COCC(=O)NCc1cc(=O)n2c(n1)CN(Cc1ccncc1)CCC2 the screen gave 5.916%. CC1C(=O)Nc2cccnc2N1S(=O)(=O)c1cc(F)cc(F)c1 (stereo not given) gave 18.5%. With O=C(c1ccccn1)N1CC[C@@H](N2CCOCC2)[C@@H]1Cc1ccccc1 the screen gave -25.06%. With CC(C)n1cc(CN2CCCN(C(=O)CC3CCCO3)CC2)cn1 (stereo not given) the screen gave 5.989%. CN1CCN(Cc2cnc3n2CCN(Cc2cccs2)C3)CC1.O=C(O)C(F)(F)F.O=C(O)C(F)(F)F.O=C(O)C(F)(F)F read -13.03%.

O=C(Cc1ccc2c(c1)OCCO2)N1CCCC(n2cccn2)C1 (stereo not given) gave 49.54% and 51.7% and 51.33%. Result for Cc1nc(NCc2ccc(F)cc2)cc(C2CCCN2)n1.Cl (stereo not given) was 7.98%. Result for CN(C)CCN1C(=O)CCC12CCN(Cc1cccs1)CC2.O=C(O)C(F)(F)F.O=C(O)C(F)(F)F was -3.065%. With NCc1cccc(-c2cccnc2C(=O)NCCN2CCCC2)c1 the screen gave 14.3%.

The first 4 entries again:

structure,effect
Cc1ccc(CNC(=O)NC(C)CCS(C)(=O)=O)cc1F (stereo not given),-12.26
O=C1NC[C@]2(CC[C@@H](C(=O)N3CCCC(O)C3)CC2)Oc2ccccc21 (stereo not given in full),-7.822
COCC1CN(Cc2ccncc2)Cc2nnn(CC3CC3)c21.O=C(O)C(F)(F)F.O=C(O)C(F)(F)F (stereo not given),-6.543
O=C(COc1cccc2c1CCC2=O)NCCOc1ccccc1,6.201